Test results taken from patent US20220251074A1, “HERBICIDAL AMIDES” (BASF SE, priority 2019, published 2022).
Some entries share one result that the patent states for a list of compounds.

Columns and labels:
SETVI = assay: greenhouse post-emergence herbicidal test; format: in vivo, Setaria viridis; conditions: post-emergence method, application rate 500 g/ha, scale from 0 to 100
Text: (§1) The culture containers used were plastic flowerpots containing loamy sand with approximately 3.0% of humus as the substrate. The seeds of the test plants were sown separately for each species.
(§2) For the post-emergence treatment, the test plants were first grown to a height of 3 to 15 cm, depending on the plant habit, and only then treated with the active ingredients which had been suspended or emulsified in water. For this purpose, the test plants were either sown directly and grown in the same containers, or they were first grown separately as seedlings and transplanted into the test containers a few days prior to treatment.
(§3) Depending on the species, the plants were kept at 10-25° C. or 20-35° C., respectively. The test period extended over 2 to 4 weeks. During this time, the plants were tended, and their response to the individual treatments was evaluated.
(§4) Evaluation was carried out using a scale from 0 to 100. 100 means no emergence of the plants, or complete destruction of at least the aerial moieties, and 0 means no damage, or normal course of growth. A good herbicidal activity is given at values of at least 80 and a very good herbicidal activity is given at values of at least 90.
(§5) The plants used in the greenhouse experiments were of the following species: […]

ABUTH = assay: greenhouse post-emergence herbicidal test; format: in vivo, Abutilon theophrasti; conditions: post-emergence method, application rate 500 g/ha, scale from 0 to 100
Text: as §1, §2, §3, §4, §5

AMARE = assay: greenhouse post-emergence herbicidal test; format: in vivo, Amaranthus retroflexus; conditions: post-emergence method, application rate 500 g/ha, scale from 0 to 100
Text: as §1, §2, §3, §4, §5

ALOMY = assay: greenhouse post-emergence herbicidal test; format: in vivo, Alopercurus myosuroides; conditions: post-emergence method, application rate 500 g/ha, scale from 0 to 100
Text: as §1, §2, §3, §4, §5

ECHCG [1] = assay: greenhouse pre-emergence herbicidal test; format: in vivo, Echinocloa crus-galli; conditions: pre-emergence method, application rate 500 g/ha, scale from 0 to 100
ECHCG [2] = assay: greenhouse post-emergence herbicidal test; format: in vivo, Echinocloa crus-galli; conditions: post-emergence method, application rate 500 g/ha, scale from 0 to 100
Text: as §1, §2, §3, §4, §5

| Structure (SMILES) | herbicidal activity against SETVI (SETVI) | herbicidal activity against ABUTH (ABUTH) | herbicidal activity against AMARE (AMARE) | herbicidal activity against ALOMY (ALOMY) | herbicidal activity against ECHCG (ECHCG [1]) | herbicidal activity against ECHCG (ECHCG [2]) |
| --- | --- | --- | --- | --- | --- | --- |
| C/C(=C\C(=O)NCC(F)F)C[C@@H]1OC[C@H](C[C@@H]2O[C@H]2[C@@H](C)[C@H](C)OC=O)[C@@H](OC=O)[C@H]1OC=O [compound 49] | very good herbicidal activity (a very good herbicidal activity is given at values of at least 90) | very good herbicidal activity (a very good herbicidal activity is given at values of at least 90) | very good herbicidal activity (a very good herbicidal activity is given at values of at least 90) | good herbicidal activity (A good herbicidal activity is given at values of at least 80) | – | – |
| C/C(=C\C(=O)N1CCOC1=O)C[C@@H]1OC[C@H](C[C@@H]2O[C@H]2[C@@H](C)[C@H](C)O)[C@@H](O)[C@H]1O [compound 34] | very good herbicidal activity (a very good herbicidal activity is given at values of at least 90) | very good herbicidal activity (a very good herbicidal activity is given at values of at least 90) | very good herbicidal activity (a very good herbicidal activity is given at values of at least 90) | – | very good herbicidal activity (a very good herbicidal activity is given at values of at least 90) | very good herbicidal activity (a very good herbicidal activity is given at values of at least 90) |
| CC#CCNC(=O)/C=C(\C)C[C@@H]1OC[C@H](C[C@@H]2O[C@H]2[C@@H](C)[C@H](C)O)[C@@H](O)[C@H]1O [compound 27] | very good herbicidal activity (a very good herbicidal activity is given at values of at least 90) | very good herbicidal activity (a very good herbicidal activity is given at values of at least 90) | very good herbicidal activity (a very good herbicidal activity is given at values of at least 90) | – | good herbicidal activity (A good herbicidal activity is given at values of at least 80) | very good herbicidal activity (a very good herbicidal activity is given at values of at least 90) |
| C/C(=C\C(=O)NCC(F)F)C[C@@H]1OC[C@H](C[C@@H]2O[C@H]2[C@@H](C)[C@H](C)O)[C@@H](OC=O)[C@H]1OC=O [compound 11] | very good herbicidal activity (a very good herbicidal activity is given at values of at least 90) | very good herbicidal activity (a very good herbicidal activity is given at values of at least 90) | very good herbicidal activity (a very good herbicidal activity is given at values of at least 90) | good herbicidal activity (A good herbicidal activity is given at values of at least 80) | – | – |
| CC(=O)[C@H](C)[C@@H]1O[C@H]1C[C@H]1CO[C@@H](C/C(C)=C/C(=O)NCC(F)(F)F)[C@H](O)[C@@H]1O [compound 43] | – | – | – | – | very good herbicidal activity (a very good herbicidal activity is given at values of at least 90) | – |
| C/C(=C\C(=O)NCC(F)(F)C(F)(F)C(F)(F)F)C[C@@H]1OC[C@H](C[C@@H]2O[C@H]2[C@@H](C)[C@H](C)O)[C@@H](O)[C@H]1O [compound 9] | – | – | – | – | good herbicidal activity (A good herbicidal activity is given at values of at least 80) | – |
| C/C(=C\C(=O)NCC(F)(F)C(F)(F)F)C[C@@H]1OC[C@H](C[C@@H]2O[C@H]2[C@@H](C)[C@H](C)O)[C@@H](O)[C@H]1O [compound 8] | very good herbicidal activity (a very good herbicidal activity is given at values of at least 90) | very good herbicidal activity (a very good herbicidal activity is given at values of at least 90) | very good herbicidal activity (a very good herbicidal activity is given at values of at least 90) | – | good herbicidal activity (A good herbicidal activity is given at values of at least 80) | very good herbicidal activity (a very good herbicidal activity is given at values of at least 90) |
| C#CC(C)NC(=O)C=C(C)CC1OCC(CC2OC2C(C)C(C)O)C(O)C1O (mixture of isomers) [compound 28] | very good herbicidal activity (a very good herbicidal activity is given at values of at least 90) | very good herbicidal activity (a very good herbicidal activity is given at values of at least 90) | very good herbicidal activity (a very good herbicidal activity is given at values of at least 90) | – | – | good herbicidal activity (A good herbicidal activity is given at values of at least 80) |
| C#CCNC(=O)/C=C(\C)C[C@@H]1OC[C@H](C[C@@H]2O[C@H]2[C@@H](C)C(C)=O)[C@@H](OC(C)=O)[C@H]1OC(C)=O [compound 47] | very good herbicidal activity (a very good herbicidal activity is given at values of at least 90) | very good herbicidal activity (a very good herbicidal activity is given at values of at least 90) | very good herbicidal activity (a very good herbicidal activity is given at values of at least 90) | – | – | very good herbicidal activity (a very good herbicidal activity is given at values of at least 90) |
| C/C(=C\C(=O)N1CC(C)(C)OC1=O)C[C@@H]1OC[C@H](C[C@@H]2O[C@H]2[C@@H](C)[C@H](C)O)[C@@H](O)[C@H]1O [compound 35, 3-[(E)-4-[(2S,3R,4R,5S)-3,4-dihydroxy-5-[[(2S,3S)-3-[(1S,2S)-2-hydroxy-1-methyl-propyl]oxiran-2-yl]methyl]tetrahydropyran-2-yl]-3-methyl-but-2-enoyl]-5,5-dimethyl-oxazolidin-2-one] | very good herbicidal activity (a very good herbicidal activity is given at values of at least 90) | very good herbicidal activity (a very good herbicidal activity is given at values of at least 90) | very good herbicidal activity (a very good herbicidal activity is given at values of at least 90) | – | – | very good herbicidal activity (a very good herbicidal activity is given at values of at least 90) |
| CC(=O)C(C)C1OC1CC1COC(CC(C)=CC(=O)NCC(F)F)C2OC(C)(C)OC12 (centres unmarked) [compound 45] | very good herbicidal activity (a very good herbicidal activity is given at values of at least 90) | very good herbicidal activity (a very good herbicidal activity is given at values of at least 90) | very good herbicidal activity (a very good herbicidal activity is given at values of at least 90) | – | – | very good herbicidal activity (a very good herbicidal activity is given at values of at least 90) |
